Data reported in article PMC6880163 (Journal of Virology, 2019).
No constants are given. Whether binding was seen depends on the method and setting. In cells and extracts the contact can be indirect. Some binding calls cover weakened binding; strength is not graded here. For some assays here: Where a sequence is shown, tags or fusion partners need not be part of it.

Chains of the proteins cited; added tags and fusions are not shown. Residues count along the entry.
UniProt P03520, residues 32-107: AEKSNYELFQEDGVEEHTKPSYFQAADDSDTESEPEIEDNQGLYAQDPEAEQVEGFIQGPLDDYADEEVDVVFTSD

B1: TagRFP/TRIM69 (wild type) (protein, UniProt Q86WT6 1-500)
chain: MEVSTNPSSNIDPGDYVEMNDSITHLPSKVVIQDITMELHCPLCNDWFRDPLMLSCGHNFCEACIQDFWRLQAKETFCPECKMLCQYNNCTFNPVLDKLVEKIKKLPLLKGHPQCPEHGENLKLFSKPDGKLICFQCKDARLSVGQSKEFLQISDAVHFFTEELAIQQGQLETTLKELQTLRNMQKEAIAAHKENKLHLQQHVSMEFLKLHQFLHSKEKDILTELREEGKALNEEMELNLSQLQEQCLLAKDMLVSIQAKTEQQNSFDFLKDITTLLHSLEQGMKVLATRELISRKLNLGQYKGPIQYMVWREMQDTLCPGLSPLTLDPKTAHPNLVLSKSQTSVWHGDIKKIMPDDPERFDSSVAVLGSRGFTSGKWYWEVEVAKKTKWTVGVVRESIIRKGSCPLTPEQGFWLLRLRNQTDLKALDLPSFSLTLTNNLDKVGIYLDYEGGQLSFYNAKTMTHIYTFSNTFMEKLYPYFCPCLNDGGENKEPLHILHPQ
B2: Cherry/TRIM69 (wild type) (protein, UniProt Q86WT6 1-500)
chain: B1 chain

What was measured:
[1] = molecular target: TagRFP/TRIM69 (wild type) (human) (UniProt Q86WT6); assay: cross-linking; intact doxycycline-induced HT1080 cells in 1x PBS treated with 0.2 mM EGS (membrane-permeable) for 30 min at room temperature, lysed in LDS sample buffer, Western blot with anti-RFP antibody
[2] = molecular target: GST/P(32-107) wild type (vesicular stomatitis virus, Indiana serotype) (UniProt P03520); assay: pull-down

Binder | binding [1] | binding [2]
B1 | binds | 
B2 |  | binds
